Measurements from paper PMC4737156, “Taking a molecular motor for a spin: helicase mechanism studied by spin labeling and PELDOR”.

Legend:
[1] = biological target: PcrA V344C/Q506C-R1 (2A-2B) (Bacillus stearothermophilus) (UniProt P56255); test: PELDOR (DEER) EPR; details: DNA 150 uM, nucleotide 10-fold excess, 1 mM MgCl2, 5% EG-d6, XPD 40-50 uM, DNA about 2x, recombinant protein, folded or branched DNA
[2] = biological target: PcrA E74C/Q506C-R1 (1A-2B) (Bacillus stearothermophilus) (UniProt P56255); test: PELDOR (DEER) EPR; details: DNA 150 uM, nucleotide 10-fold excess, 1 mM MgCl2, 5% EG-d6, XPD 40-50 uM, DNA about 2x, recombinant protein, folded or branched DNA

Measured: binding result

CGAGCACTGCTTTAGCAGTGCTCGTTTTTTTTTT [hairpin with 3'-(dT)10 overhang]
binds: [1]; ADP, 1 mM MgCl2, 36.7 and 44.4 A (1:1) | [1]; AMP-PNP, 1 mM MgCl2, 36.7 and 44.1 A (1:1) | [2]; ADP, 1 mM MgCl2, 34 and 45 A (0.5:1) | [2]; AMP-PNP, 1 mM MgCl2, 33 and 46 A (0.4:1)

For at least one entry, the source does not settle the construct or the ends of the probe. At least one verdict rests on a figure or table, not on a statement of the authors.
